Values quoted from earlier work, collected in US20060258599A1, “Methods and composition for the treatment of cystic fibrosis and related illnesses” (priority 2005, published 2006).

System: Hepa 1c1c7 murine hepatoma cells
Conditions: cited from earlier work

| SMILES | conjugation to reduced glutathione (GSH) within cells |
| --- | --- |
| S=C=NCc1ccccc1 [BITC, benzyl isothiocyanate] | conjugated to reduced glutathione (GSH) |
| C[S+]([O-])CCCCN=C=S (centres unmarked) [sulforaphane] | conjugated to reduced glutathione (GSH) |
